# Reference: the supplement of paper PMC10849652
# Amino acid sequences for entries named in this document (tags omitted). A change or cut given only in a name is not applied to a line headed by its entry.
# UniProt Q15652: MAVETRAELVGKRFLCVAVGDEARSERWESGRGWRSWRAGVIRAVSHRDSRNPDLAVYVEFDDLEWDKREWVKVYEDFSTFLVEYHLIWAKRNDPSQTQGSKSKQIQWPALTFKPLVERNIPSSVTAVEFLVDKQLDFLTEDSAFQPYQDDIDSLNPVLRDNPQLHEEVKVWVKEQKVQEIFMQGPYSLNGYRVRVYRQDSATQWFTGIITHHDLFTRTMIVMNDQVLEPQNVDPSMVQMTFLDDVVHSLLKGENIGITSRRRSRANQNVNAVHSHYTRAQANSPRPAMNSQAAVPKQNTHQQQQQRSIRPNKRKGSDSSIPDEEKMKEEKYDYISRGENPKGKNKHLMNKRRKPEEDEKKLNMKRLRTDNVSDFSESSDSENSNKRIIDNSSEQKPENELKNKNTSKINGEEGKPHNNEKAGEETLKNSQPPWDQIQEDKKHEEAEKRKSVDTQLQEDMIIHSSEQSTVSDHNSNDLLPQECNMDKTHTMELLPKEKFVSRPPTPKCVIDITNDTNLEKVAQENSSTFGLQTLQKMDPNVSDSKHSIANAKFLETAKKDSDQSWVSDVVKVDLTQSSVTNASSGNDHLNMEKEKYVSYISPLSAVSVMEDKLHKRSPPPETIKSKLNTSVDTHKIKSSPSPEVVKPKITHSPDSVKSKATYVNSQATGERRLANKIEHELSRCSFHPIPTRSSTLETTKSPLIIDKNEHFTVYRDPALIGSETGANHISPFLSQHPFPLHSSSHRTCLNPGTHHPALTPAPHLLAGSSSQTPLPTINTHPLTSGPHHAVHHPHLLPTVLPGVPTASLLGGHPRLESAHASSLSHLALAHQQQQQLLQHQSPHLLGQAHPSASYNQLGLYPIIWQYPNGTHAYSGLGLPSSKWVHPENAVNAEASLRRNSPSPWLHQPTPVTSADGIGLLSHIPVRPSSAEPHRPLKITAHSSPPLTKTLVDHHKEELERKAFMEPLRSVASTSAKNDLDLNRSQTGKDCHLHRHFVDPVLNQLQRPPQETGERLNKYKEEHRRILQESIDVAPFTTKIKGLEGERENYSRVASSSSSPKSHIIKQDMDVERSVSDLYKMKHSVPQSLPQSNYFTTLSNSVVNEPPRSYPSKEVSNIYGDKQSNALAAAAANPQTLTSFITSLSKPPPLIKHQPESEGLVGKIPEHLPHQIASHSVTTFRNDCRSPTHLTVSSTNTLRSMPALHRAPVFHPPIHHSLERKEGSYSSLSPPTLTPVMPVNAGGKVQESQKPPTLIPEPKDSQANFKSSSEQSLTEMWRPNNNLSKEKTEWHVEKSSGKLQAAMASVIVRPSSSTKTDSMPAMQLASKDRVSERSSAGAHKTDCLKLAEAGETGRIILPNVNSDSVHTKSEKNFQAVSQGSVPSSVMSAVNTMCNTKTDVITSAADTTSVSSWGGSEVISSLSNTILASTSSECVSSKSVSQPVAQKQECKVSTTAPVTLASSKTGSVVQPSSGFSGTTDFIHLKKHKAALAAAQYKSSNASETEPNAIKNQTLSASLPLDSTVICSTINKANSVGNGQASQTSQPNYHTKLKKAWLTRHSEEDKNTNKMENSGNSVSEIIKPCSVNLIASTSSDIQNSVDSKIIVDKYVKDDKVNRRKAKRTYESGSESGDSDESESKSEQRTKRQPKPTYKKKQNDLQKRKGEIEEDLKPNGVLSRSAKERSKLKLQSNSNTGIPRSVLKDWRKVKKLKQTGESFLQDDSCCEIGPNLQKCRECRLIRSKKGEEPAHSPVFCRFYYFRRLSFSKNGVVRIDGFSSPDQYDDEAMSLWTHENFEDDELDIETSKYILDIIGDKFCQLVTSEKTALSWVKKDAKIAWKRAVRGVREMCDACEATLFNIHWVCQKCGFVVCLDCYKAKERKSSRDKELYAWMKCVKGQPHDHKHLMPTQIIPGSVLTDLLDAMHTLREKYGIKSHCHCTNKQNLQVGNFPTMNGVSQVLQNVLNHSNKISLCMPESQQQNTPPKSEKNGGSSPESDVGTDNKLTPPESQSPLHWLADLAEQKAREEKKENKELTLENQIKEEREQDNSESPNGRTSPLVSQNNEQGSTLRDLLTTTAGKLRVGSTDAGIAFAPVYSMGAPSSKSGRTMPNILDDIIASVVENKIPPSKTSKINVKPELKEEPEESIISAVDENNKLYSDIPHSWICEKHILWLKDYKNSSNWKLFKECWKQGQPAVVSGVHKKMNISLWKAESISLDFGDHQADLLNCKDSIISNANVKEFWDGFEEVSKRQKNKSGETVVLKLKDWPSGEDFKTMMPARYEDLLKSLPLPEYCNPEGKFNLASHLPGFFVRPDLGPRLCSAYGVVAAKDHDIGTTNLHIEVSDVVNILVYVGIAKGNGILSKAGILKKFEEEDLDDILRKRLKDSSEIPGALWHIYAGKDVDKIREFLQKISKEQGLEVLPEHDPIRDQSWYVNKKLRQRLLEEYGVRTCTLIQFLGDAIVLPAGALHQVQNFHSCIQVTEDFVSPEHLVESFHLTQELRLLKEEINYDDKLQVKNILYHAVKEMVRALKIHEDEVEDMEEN
# UniProt O94829: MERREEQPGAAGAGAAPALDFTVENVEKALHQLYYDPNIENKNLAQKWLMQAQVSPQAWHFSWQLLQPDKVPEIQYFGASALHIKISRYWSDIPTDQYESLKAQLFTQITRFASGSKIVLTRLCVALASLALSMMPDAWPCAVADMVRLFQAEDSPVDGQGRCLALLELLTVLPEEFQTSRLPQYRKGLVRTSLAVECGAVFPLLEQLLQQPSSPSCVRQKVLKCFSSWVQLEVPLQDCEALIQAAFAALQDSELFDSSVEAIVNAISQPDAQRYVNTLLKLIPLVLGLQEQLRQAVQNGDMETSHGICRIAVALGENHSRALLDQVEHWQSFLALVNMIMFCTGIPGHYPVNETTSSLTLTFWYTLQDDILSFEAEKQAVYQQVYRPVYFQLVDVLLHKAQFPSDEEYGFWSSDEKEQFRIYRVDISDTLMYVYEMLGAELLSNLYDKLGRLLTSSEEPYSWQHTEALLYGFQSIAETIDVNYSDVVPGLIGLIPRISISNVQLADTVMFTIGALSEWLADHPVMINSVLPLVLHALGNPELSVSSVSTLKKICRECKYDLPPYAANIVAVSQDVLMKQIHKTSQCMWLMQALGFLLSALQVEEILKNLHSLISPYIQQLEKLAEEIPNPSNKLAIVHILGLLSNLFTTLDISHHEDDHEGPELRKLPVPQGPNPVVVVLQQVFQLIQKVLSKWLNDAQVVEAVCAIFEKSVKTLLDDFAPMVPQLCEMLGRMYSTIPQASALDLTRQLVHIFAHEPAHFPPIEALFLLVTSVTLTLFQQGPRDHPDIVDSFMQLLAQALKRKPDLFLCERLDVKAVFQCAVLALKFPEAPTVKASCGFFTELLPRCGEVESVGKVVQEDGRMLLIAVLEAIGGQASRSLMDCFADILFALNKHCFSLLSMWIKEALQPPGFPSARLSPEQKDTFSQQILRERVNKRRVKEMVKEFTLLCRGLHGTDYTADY
# UniProt Q9NV88, whole entry, looked up: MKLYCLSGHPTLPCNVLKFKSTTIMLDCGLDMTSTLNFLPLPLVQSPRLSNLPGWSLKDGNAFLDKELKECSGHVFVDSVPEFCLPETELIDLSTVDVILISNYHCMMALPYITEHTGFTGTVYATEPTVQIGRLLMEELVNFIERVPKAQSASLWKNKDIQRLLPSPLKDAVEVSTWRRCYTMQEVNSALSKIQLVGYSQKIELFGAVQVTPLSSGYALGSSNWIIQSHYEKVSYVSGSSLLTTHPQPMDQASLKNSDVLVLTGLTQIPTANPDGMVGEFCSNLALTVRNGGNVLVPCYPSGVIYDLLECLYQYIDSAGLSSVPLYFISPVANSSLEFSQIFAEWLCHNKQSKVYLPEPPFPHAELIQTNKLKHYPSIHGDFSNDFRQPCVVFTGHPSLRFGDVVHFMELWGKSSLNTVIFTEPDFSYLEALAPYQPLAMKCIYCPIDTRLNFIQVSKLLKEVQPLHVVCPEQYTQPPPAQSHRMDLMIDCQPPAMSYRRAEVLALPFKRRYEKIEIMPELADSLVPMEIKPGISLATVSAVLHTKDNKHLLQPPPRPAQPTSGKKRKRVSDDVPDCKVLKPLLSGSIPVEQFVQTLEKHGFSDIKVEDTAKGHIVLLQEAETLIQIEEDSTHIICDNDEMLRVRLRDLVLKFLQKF
# UniProt Q8N5M9: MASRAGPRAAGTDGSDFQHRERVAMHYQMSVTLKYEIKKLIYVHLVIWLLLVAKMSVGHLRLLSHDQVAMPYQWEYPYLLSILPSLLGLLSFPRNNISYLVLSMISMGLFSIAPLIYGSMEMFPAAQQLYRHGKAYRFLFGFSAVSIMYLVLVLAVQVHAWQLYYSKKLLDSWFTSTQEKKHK
# UniProt Q9H3F6: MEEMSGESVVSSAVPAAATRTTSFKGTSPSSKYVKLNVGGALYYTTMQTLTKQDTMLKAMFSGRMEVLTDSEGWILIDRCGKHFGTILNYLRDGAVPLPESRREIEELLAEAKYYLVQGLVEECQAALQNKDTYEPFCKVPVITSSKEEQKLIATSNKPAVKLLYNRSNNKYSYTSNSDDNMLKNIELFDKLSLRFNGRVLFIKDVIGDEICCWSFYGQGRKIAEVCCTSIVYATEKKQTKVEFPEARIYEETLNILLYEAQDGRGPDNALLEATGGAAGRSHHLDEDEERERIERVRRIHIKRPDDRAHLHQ
# UniProt Q9NXV2: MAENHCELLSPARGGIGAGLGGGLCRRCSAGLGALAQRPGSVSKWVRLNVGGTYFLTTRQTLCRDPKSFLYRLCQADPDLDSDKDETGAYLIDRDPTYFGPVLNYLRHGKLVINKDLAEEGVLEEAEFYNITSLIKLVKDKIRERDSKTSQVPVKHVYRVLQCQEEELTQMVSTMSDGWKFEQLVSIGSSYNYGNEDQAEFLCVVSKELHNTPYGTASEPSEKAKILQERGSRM
# UniProt Q9BVA0, whole entry, looked up: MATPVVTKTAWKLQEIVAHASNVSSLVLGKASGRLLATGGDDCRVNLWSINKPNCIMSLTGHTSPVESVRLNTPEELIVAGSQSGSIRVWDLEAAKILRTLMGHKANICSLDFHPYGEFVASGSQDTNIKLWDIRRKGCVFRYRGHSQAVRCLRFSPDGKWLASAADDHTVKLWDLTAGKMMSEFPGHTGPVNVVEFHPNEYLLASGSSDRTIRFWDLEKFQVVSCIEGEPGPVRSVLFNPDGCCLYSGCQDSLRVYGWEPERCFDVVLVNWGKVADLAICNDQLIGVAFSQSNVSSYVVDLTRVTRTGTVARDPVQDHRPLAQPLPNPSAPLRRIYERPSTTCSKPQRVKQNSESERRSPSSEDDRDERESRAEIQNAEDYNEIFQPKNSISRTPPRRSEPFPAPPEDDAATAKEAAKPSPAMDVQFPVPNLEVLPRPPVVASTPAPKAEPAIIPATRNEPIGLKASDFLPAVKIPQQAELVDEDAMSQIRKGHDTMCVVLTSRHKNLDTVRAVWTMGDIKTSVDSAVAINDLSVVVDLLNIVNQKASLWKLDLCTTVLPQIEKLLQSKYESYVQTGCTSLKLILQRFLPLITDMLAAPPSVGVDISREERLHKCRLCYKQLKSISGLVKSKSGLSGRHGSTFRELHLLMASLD
# UniProt Q9H1B7, whole entry, looked up: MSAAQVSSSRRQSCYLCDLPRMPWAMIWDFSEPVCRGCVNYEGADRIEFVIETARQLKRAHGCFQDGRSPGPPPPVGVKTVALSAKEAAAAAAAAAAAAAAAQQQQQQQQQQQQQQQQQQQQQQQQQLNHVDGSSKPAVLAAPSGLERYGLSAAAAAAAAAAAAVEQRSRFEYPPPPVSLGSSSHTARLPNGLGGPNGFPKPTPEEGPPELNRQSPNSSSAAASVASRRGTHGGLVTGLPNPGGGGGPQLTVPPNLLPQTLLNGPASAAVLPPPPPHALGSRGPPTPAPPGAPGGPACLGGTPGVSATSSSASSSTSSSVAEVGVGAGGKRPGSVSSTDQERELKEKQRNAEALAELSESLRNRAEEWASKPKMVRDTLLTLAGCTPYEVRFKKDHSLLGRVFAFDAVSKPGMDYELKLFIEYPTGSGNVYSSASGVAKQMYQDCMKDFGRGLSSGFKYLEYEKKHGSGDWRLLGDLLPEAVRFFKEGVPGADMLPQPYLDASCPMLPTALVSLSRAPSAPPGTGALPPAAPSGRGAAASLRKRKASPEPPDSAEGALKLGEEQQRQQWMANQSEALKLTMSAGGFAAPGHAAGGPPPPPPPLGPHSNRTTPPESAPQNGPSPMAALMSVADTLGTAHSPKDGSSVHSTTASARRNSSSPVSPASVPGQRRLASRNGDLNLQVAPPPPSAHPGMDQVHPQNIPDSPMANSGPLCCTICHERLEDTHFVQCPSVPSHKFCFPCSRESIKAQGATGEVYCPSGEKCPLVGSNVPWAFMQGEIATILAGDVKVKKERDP
# UniProt P33947: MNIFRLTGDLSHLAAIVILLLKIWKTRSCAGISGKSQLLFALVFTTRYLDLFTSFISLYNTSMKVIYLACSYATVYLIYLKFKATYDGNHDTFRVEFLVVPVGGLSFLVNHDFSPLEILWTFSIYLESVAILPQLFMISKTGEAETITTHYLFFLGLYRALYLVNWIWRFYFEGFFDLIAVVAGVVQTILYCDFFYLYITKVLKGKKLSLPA
# This is one part of the list.
# Columns and labels:
# Test in all cases: log2 fold change, soluble protein after heating vs DMSO (PISA); higher = thermal stabilisation; K562 lysate, 10 uM; active = over 0.2 and 3.5 SD of the protein, either way, in both replicates (recomputed)
# ibrutinib = compound: C=CC(=O)N1CCC[C@@H](n2nc(-c3ccc(Oc4ccccc4)cc3)c3c(N)ncnc32)C1 [ibrutinib]
# In short: (§1)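 Dounce homogenisation of K562 pellets in PBS pH 7.4 with 1 mM MgCl2 produced a crude extract, used at 1 mg/mL protein. Exposure to 10 μM compound lasted 30 min, and aliquots were then heated for 3 min across 48°C-58°C, pooled and brought to 0.5% NP-40 at 4°C. The supernatant after 21,000xg for 90 min was quantified by TMTpro 16plex LC-MS/MS with channel sums equalised. Duplicate values are given as log-two fold change in thermal stability relative to solvent controls.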
# [1] = compound: CC(=O)c1cnc2ccc(-c3cc(Cl)c(O)c(Cl)c3)nc2c1N[C@H]1CC[C@H](CN(C)C)CC1
# In short: as §1
# ralimetinib = compound: CC(C)(C)Cn1c(N)nc2ccc(-c3[nH]c(C(C)(C)C)nc3-c3ccc(F)cc3)nc21 [ralimetinib]
# In short: as §1
# [2] = compound: CC(C)(O)CC(=O)NCCn1ccc2ncnc(Nc3ccc(Oc4cccc(C(F)(F)F)c4)c(Cl)c3)c21
# In short: as §1
# [3] = compound: CC(C)C1=C2N=C(C=C(N2N=C1)NCC3=CC=CC=C3)NCCCCCCN
# In short: as §1
# [4] = compound: CC1=C(C(CC(=O)N1)C2=CC=C(C=C2)C(F)(F)F)C(=O)NC3=C(C=C4C(=C3)C=NN4)F
# In short: as §1
# [5] = compound: CC1=C(C2=C(C=C1)C(=O)C3=CC=CC=C3N2CCCN)C
# In short: as §1
# [6] = compound: CC1=C(C=C(C=C1)NC(=O)C2=CC(=CC=C2)C(C)(C)C#N)NC3=CC4=C(C=C3)N=CN(C4=O)C
# In short: as §1
# [7] = compound: CC1=C(C=C(C=C1)NC(=O)C2=CC(=CC=C2)N(C)C)NC(=O)C3=CC=C(C=C3)O
# In short: as §1
# [8] = compound: CC1=CC=C(C=C1)SC2=C3C=C(SC3=CN=C2)C(=O)N
# In short: as §1
Target,log2 fold change (ibrutinib),log2 fold change [1],log2 fold change (ralimetinib),log2 fold change [2],log2 fold change [3],log2 fold change [4],log2 fold change [5],log2 fold change [6],log2 fold change [7],log2 fold change [8]
JMJD1C (UniProt Q15652),inactive: -0.095,inactive: -0.017,inactive: -0.008,inactive: -0.03,inactive: -0.002,inactive: 0.009,inactive: 0.015,inactive: -0.034,inactive: 0.041,inactive: 0.02
KDM1A (UniProt O60341),inactive: 0.007,inactive: -0.011,inactive: 0.018,inactive: -0.016,inactive: 0.019,inactive: -0.004,inactive: 0.003,inactive: -0.004,inactive: 0.044,inactive: 0.003
IPO13 (UniProt O94829),inactive: 0.028,inactive: -0.007,inactive: 0.02,inactive: -0.044,inactive: -0.025,inactive: -0.041,inactive: 0.07,inactive: -0.005,inactive: 0.011,inactive: -0.005
ISCA1 isoform 2 (UniProt Q9BUE6),inactive: 0.049,inactive: -0.001,inactive: 0.04,inactive: -0.028,inactive: -0.069,inactive: -0.276,inactive: -0.006,inactive: 0.031,inactive: -0.029,inactive: -0.016
KBTBD2 (UniProt Q8IY47),inactive: -0.005,inactive: -0.039,inactive: -0.113,inactive: -0.227,inactive: 0,inactive: 0.001,inactive: -0.036,inactive: 0.116,inactive: 0,inactive: -0.041
INTS9 (UniProt Q9NV88),inactive: 0.053,inactive: -0.053,inactive: 0.035,inactive: -0.045,inactive: -0.004,inactive: 0.014,inactive: 0.002,inactive: 0.038,inactive: -0.026,inactive: -0.057
JAGN1 (UniProt Q8N5M9),inactive: 0.083,inactive: 0.036,inactive: -0.007,inactive: 0.062,inactive: -0.023,inactive: 0.022,inactive: -0.028,inactive: -0.008,inactive: 0.004,inactive: 0.012
KCTD10 (UniProt Q9H3F6),inactive: 0.013,inactive: 0.023,inactive: -0.02,inactive: -0.042,inactive: -0.077,inactive: -0.06,inactive: -0.096,inactive: -0.06,inactive: 0.011,inactive: 0.03
KCTD3 (UniProt Q9Y597),inactive: 0.049,inactive: 0.013,inactive: -0.034,inactive: -0.021,inactive: -0.016,inactive: -0.03,inactive: -0.01,inactive: 0.024,inactive: 0.01,inactive: -0.002
INTS7 (UniProt Q9NVH2),inactive: 0.012,inactive: 0.061,inactive: 0.083,inactive: -0.024,inactive: 0.023,inactive: 0.023,inactive: -0.09,active: 0.543,inactive: 0.007,inactive: 0.039
KCT2 (UniProt Q8NC54),inactive: 0.025,inactive: 0.018,inactive: 0.038,inactive: -0.076,inactive: -0.015,inactive: 0.008,inactive: -0.034,inactive: -0.025,inactive: 0.004,inactive: -0.024
INTS2 (UniProt Q9H0H0),inactive: -0.031,inactive: -0.097,inactive: -0.008,inactive: -0.077,inactive: 0.064,inactive: 0.01,inactive: -0.019,inactive: -0.064,inactive: 0.028,inactive: 0.083
IRF2BP2 (UniProt Q7Z5L9),inactive: 0.02,inactive: -0.019,inactive: -0.002,inactive: -0.028,inactive: -0.054,inactive: -0.014,inactive: 0.006,inactive: 0.037,inactive: -0.003,inactive: -0.062
IP6K1 (UniProt Q92551),inactive: -0.334,inactive: -0.018,inactive: -0.053,inactive: 0.017,inactive: -0.002,inactive: 0.13,inactive: 0.026,inactive: 0.014,inactive: 0.04,–
JPT2 isoform 3 (UniProt Q9H910),inactive: 0.025,inactive: -0.009,inactive: -0.008,inactive: -0.041,inactive: -0.002,inactive: -0.019,inactive: -0.004,inactive: 0.001,inactive: 0.017,inactive: -0.027
KCTD5 (UniProt Q9NXV2),inactive: -0.015,inactive: 0.04,inactive: 0.006,inactive: -0.046,inactive: 0.11,inactive: 0.064,inactive: 0.04,inactive: 0.041,inactive: -0.029,inactive: -0.035
KATNB1 (UniProt Q9BVA0),inactive: 0.024,inactive: 0.012,inactive: -0.012,inactive: 0.012,inactive: -0.001,inactive: 0.055,inactive: 0.006,inactive: 0.026,inactive: 0.003,inactive: 0.024
ITGAV (UniProt P06756),inactive: -0.002,inactive: -0.009,inactive: -0.011,inactive: -0.025,inactive: -0.037,inactive: -0.034,inactive: -0.018,inactive: 0.028,inactive: 0.014,inactive: -0.028
ISYNA1 (UniProt Q9NPH2),inactive: 0.028,inactive: 0.015,inactive: 0.045,inactive: -0.056,inactive: 0.012,inactive: 0,inactive: -0.028,inactive: -0.011,inactive: 0,inactive: -0.011
JMJD6 isoform 3 (UniProt Q6NYC1),inactive: -0.045,inactive: 0,inactive: 0.076,inactive: 0.028,inactive: 0,inactive: -0.021,inactive: 0.008,inactive: -0.03,inactive: 0.022,inactive: -0.026
IRF2BPL (UniProt Q9H1B7),inactive: 0.052,inactive: 0.004,inactive: 0.039,inactive: 0.026,inactive: -0.026,inactive: 0.02,inactive: -0.018,inactive: 0.045,inactive: 0.029,inactive: -0.038
IST1 (UniProt P53990),inactive: -0.033,inactive: 0.034,inactive: -0.014,inactive: 0.001,inactive: -0.014,inactive: -0.044,inactive: 0.045,inactive: 0.003,inactive: -0.038,inactive: -0.014
JUND (UniProt P17535),inactive: 0.024,inactive: -0.034,inactive: 0.039,inactive: -0.002,inactive: -0.032,inactive: 0.02,inactive: 0.025,inactive: 0.063,inactive: -0.009,inactive: -0.019
KCMF1 (UniProt Q9P0J7),inactive: -0.047,inactive: 0.008,inactive: -0.005,inactive: -0.045,inactive: 0.057,inactive: -0.077,inactive: -0.007,inactive: 0.093,inactive: -0.077,inactive: -0.022
KDELR2 (UniProt P33947),inactive: 0.044,inactive: -0.047,inactive: 0.032,inactive: 0.035,inactive: 0.024,inactive: -0.006,inactive: -0.032,inactive: 0.041,inactive: -0.022,inactive: -0.027
IPO9 (UniProt Q96P70),inactive: -0.009,inactive: -0.019,inactive: 0.017,inactive: -0.005,inactive: -0.007,inactive: -0.004,inactive: -0.009,inactive: 0.004,inactive: -0.001,inactive: -0.008
KATNAL1 (UniProt Q9BW62),inactive: 0.022,inactive: -0.073,inactive: 0.018,inactive: -0.084,inactive: -0.003,inactive: 0.066,inactive: -0.072,inactive: -0.13,inactive: 0.124,inactive: 0.003

# Random excerpt: 2 entries already listed
Target,log2 fold change (ibrutinib),log2 fold change [1],log2 fold change (ralimetinib),log2 fold change [2],log2 fold change [3],log2 fold change [4],log2 fold change [5],log2 fold change [6],log2 fold change [7],log2 fold change [8]
IPO13 (UniProt O94829),inactive: 0.028,inactive: -0.007,inactive: 0.02,inactive: -0.044,inactive: -0.025,inactive: -0.041,inactive: 0.07,inactive: -0.005,inactive: 0.011,inactive: -0.005
JMJD6 isoform 3 (UniProt Q6NYC1),inactive: -0.045,inactive: 0,inactive: 0.076,inactive: 0.028,inactive: 0,inactive: -0.021,inactive: 0.008,inactive: -0.03,inactive: 0.022,inactive: -0.026
